Assay results from patent US20230272054A1, “COMBINATION THERAPIES FOR THE TREATMENT AND PREVENTION OF BIOFILMS” (priority 2020, published 2023).
Some results were stated once for a whole list of compounds, not compound by compound.

Test system: NTHI biofilms
Test: Disruption of NTHI biofilms in the middle ears of chinchillas with experimental otitis media
Type: in vivo, chinchilla (Chinchilla lanigera)
Details: 200 nM, two doses; one day after second treatment
Method: As a negative control, an equivalent volume of sterile saline was delivered. One day after receipt of the second therapeutic dose, all animals were sacrificed and NTHI within the middle ear biofilms was enumerated. The relative amount of mucosal biofilm and mucosal inflammation were also qualitatively assessed.
First, effectiveness of single treatment was evaluated. To this end, a subset of animals in each cohort was sacrificed one day after receipt of a single therapeutic dose (FIG. 16H) whereas the remaining animals in each cohort were sacrificed 24 h after receipt of a second treatment. […]
Disruption of NTHI biofilms resident within the middle ears of chinchillas with experimental OM: Both middle ears of each animal were challenged with 1000 CFU NTHI strain 86-028NP by direct injection to induce experimental OM. […] To determine the outcome of treatment, animals were sacrificed one day after completion of antibody therapy, images of mucosal biofilms captured with a Zeiss SV6 dissecting microscope, then mucosal biofilms and middle ear mucosa collected, homogenized and plated on to chocolate agar to semi-quantitate the non-planktonic bacterial load within the middle ear (Goodman et al., 2011). […] As an additional assessment, the amount of biofilm in each middle ear was qualitatively determined. […]

B1: rHMGB1: recombinant HMGB1 derived from a human, expressed and purified in E. coli, SEQ ID NO: 51; comparator to mHMGB1 (protein, listed as Homo sapiens)
chain: MGKGDPKKPRGKMSSYAFFVQTCREEHKKKHPDASVNFSEFSKKCSERWKTMSAKEKGKFEDMAKADKARYEREMKTYIPPKGETKKKFKDPNAPKRPPSAFFLFCSEYRPKIKGEHPGLSIGDVAKKLGEMWNNTAADDKQPYEKKAAKLKEKYEKDIAAYRAKGKPDAAKKGVVKAEKSKKKKEEEEGEEDEEDEEEEEDEEDEDEEEDDDDE
Q: How did the “middle ear occupied by biofilm” value turn out when B1 was run?
A: < 25%

B2: mHMGB1: recombinant human HMGB1 with engineered single amino acid mutation C45S, SEQ ID NO: 52 (protein)
chain: MGKGDPKKPRGKMSSYAFFVQTCREEHKKKHPDASVNFSEFSKKSSERWKTMSAKEKGKFEDMAKADKARYEREMKTYIPPKGETKKKFKDPNAPKRPPSAFFLFCSEYRPKIKGEHPGLSIGDVAKKLGEMWNNTAADDKQPYEKKAAKLKEKYEKDIAAYRAKGKPDAAKKGVVKAEKSKKKKEEEEGEEDEEDEEEEEDEEDEDEEEDDDDE
modifications: mHMGB1 (C45S)
Q: Which “middle ear occupied by biofilm” value does the source give for B2 here?
A: < 25%
